The record followed here is paper PMC10042735.

No constants are given. Whether binding was seen depends on the method and setting. In cells and extracts the contact can be indirect. Some binding calls cover weakened binding; strength is not graded here. For some assays here: Tags and fused reporters may be left off the sequences shown.

For assay [1], the target named is T1, KAT8, exogenous (tag not told in the text shown) (UniProt Q9H7Z6).
T1 sequence: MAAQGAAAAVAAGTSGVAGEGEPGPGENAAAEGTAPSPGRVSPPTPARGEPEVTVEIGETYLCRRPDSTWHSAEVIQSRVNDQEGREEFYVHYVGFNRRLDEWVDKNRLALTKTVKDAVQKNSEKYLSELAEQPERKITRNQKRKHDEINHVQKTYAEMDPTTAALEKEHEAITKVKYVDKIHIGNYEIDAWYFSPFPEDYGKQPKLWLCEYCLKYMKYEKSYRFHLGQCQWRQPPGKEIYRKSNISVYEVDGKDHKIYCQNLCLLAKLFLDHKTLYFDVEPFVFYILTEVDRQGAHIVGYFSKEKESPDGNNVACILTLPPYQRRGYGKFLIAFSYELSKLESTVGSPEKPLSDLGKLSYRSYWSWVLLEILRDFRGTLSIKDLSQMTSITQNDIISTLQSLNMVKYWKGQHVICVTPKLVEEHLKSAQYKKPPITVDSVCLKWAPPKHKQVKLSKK
Briefly: co-IP; HEK293T cells transiently cotransfected with the indicated constructs and analyzed by immunoprecipitation.

Assay [2] concerns the target T2, IRF1, exogenous (tag not told in the text shown), P10914.
T2 chain: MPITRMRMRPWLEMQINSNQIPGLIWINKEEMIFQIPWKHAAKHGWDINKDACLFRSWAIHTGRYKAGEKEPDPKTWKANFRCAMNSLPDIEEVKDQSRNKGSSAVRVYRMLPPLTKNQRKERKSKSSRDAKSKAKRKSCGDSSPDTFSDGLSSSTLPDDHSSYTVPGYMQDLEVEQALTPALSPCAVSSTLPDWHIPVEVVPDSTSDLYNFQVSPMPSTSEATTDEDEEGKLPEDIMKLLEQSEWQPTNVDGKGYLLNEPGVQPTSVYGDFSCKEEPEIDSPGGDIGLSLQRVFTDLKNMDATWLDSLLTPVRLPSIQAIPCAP
The assay is described as above. To be noted: remark: other sources report otherwise.

Assay [3] deals with T1, KAT8, exogenous (tag not told in the text shown). Briefly: co-IP; HEK293T cells transfected with the indicated constructs for 24 h; lysates precipitated with streptavidin or anti-MYC beads, blot.
In assay [4] the target is T3, endogenous KAT8 (human (endogenous in A375 and 143B)) (UniProt Q9H7Z6).
T3 sequence: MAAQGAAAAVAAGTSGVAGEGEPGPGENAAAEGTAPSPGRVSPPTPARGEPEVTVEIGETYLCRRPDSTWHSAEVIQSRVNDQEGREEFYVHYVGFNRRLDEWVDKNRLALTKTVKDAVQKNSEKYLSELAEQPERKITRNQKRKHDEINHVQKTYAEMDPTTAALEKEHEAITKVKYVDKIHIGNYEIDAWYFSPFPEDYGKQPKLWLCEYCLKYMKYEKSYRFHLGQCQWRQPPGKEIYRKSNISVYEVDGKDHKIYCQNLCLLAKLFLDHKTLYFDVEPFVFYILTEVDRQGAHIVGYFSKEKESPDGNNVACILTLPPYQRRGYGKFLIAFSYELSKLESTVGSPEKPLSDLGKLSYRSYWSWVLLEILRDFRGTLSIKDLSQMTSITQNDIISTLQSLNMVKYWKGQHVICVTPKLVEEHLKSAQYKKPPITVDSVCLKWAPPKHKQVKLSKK
Briefly: co-IP; endogenous proteins in A375 cells treated with 100 U/ml IFNγ for 6 h.

B1: IRF1 K78R mutant, exogenous (tag not told in the text shown) (protein, UniProt P10914 1-325)
chain: MPITRMRMRPWLEMQINSNQIPGLIWINKEEMIFQIPWKHAAKHGWDINKDACLFRSWAIHTGRYKAGEKEPDPKTWRANFRCAMNSLPDIEEVKDQSRNKGSSAVRVYRMLPPLTKNQRKERKSKSSRDAKSKAKRKSCGDSSPDTFSDGLSSSTLPDDHSSYTVPGYMQDLEVEQALTPALSPCAVSSTLPDWHIPVEVVPDSTSDLYNFQVSPMPSTSEATTDEDEEGKLPEDIMKLLEQSEWQPTNVDGKGYLLNEPGVQPTSVYGDFSCKEEPEIDSPGGDIGLSLQRVFTDLKNMDATWLDSLLTPVRLPSIQAIPCAP
With B1, in assay [1], the binding entry was “binds”.

B2: IRF1, exogenous (tag not told in the text shown), P10914 1-325 (protein)
chain: MPITRMRMRPWLEMQINSNQIPGLIWINKEEMIFQIPWKHAAKHGWDINKDACLFRSWAIHTGRYKAGEKEPDPKTWKANFRCAMNSLPDIEEVKDQSRNKGSSAVRVYRMLPPLTKNQRKERKSKSSRDAKSKAKRKSCGDSSPDTFSDGLSSSTLPDDHSSYTVPGYMQDLEVEQALTPALSPCAVSSTLPDWHIPVEVVPDSTSDLYNFQVSPMPSTSEATTDEDEEGKLPEDIMKLLEQSEWQPTNVDGKGYLLNEPGVQPTSVYGDFSCKEEPEIDSPGGDIGLSLQRVFTDLKNMDATWLDSLLTPVRLPSIQAIPCAP
As for B2, the binding result in assay [2] is recorded as “binds”.

B3: IRF1, exogenous (tag not told in the text shown) (protein, UniProt P10914 1-325)
chain: MPITRMRMRPWLEMQINSNQIPGLIWINKEEMIFQIPWKHAAKHGWDINKDACLFRSWAIHTGRYKAGEKEPDPKTWKANFRCAMNSLPDIEEVKDQSRNKGSSAVRVYRMLPPLTKNQRKERKSKSSRDAKSKAKRKSCGDSSPDTFSDGLSSSTLPDDHSSYTVPGYMQDLEVEQALTPALSPCAVSSTLPDWHIPVEVVPDSTSDLYNFQVSPMPSTSEATTDEDEEGKLPEDIMKLLEQSEWQPTNVDGKGYLLNEPGVQPTSVYGDFSCKEEPEIDSPGGDIGLSLQRVFTDLKNMDATWLDSLLTPVRLPSIQAIPCAP
For the molecule B3, the binding entry in assay [3] and in assay [1] was “binds” each time.

B4: endogenous IRF1 (protein, UniProt P10914 1-325)
chain: MPITRMRMRPWLEMQINSNQIPGLIWINKEEMIFQIPWKHAAKHGWDINKDACLFRSWAIHTGRYKAGEKEPDPKTWKANFRCAMNSLPDIEEVKDQSRNKGSSAVRVYRMLPPLTKNQRKERKSKSSRDAKSKAKRKSCGDSSPDTFSDGLSSSTLPDDHSSYTVPGYMQDLEVEQALTPALSPCAVSSTLPDWHIPVEVVPDSTSDLYNFQVSPMPSTSEATTDEDEEGKLPEDIMKLLEQSEWQPTNVDGKGYLLNEPGVQPTSVYGDFSCKEEPEIDSPGGDIGLSLQRVFTDLKNMDATWLDSLLTPVRLPSIQAIPCAP
With B4, the binding entry in assay [4] is “binds”.
